# Library screening results

Source: ChEMBL document CHEMBL3988442, “University of Dundee, Small-Polar-MMV Screening Library” (2021).

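Whole-cell assay for inhibitors of Mycobacterium tuberculosis growth, labelled Cornell in the record; the read-out is not stated. The concentration is filed as 10 mM, unlikely as a test dose, so the dose is not known. Higher means stronger inhibition (inferred from two other growth screens of the library). Of about 53,000 compounds tested this way, about 900 (1.7%) reached 50% or more in at least one test.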

Each number is a percent effect as filed. The record does not define 0% and 100%; most values in the screen are far below 50% and negative numbers occur (in some assays of this library far below -100). This is an unselected part of the compounds tested.

| # | structure | Percent Effect |
|---|---|---|
| 1 | `O=c1[nH]nc2c(S(=O)(=O)N3CCCCCC3)cccn12` | 0.04414 |
| 2 | `COCC(=O)N1CCC(C)(c2cc(O)[nH]n2)CC1` | 19.98 |
| 3 | `COc1ccc(-n2cnnc2SCCC#N)cn1` | 17.26 |
| 4 | `Cc1cccc(CN2CCCCC23CCNC3)n1.O=C(O)C(F)(F)F.O=C(O)C(F)(F)F` (stereo not shown) | 9.569 |
| 5 | `CN(C)CCOc1ccc(N(C)S(=O)(=O)c2cnn(C)c2)cc1` | 13.67 |
| 6 | `Cc1ccc(CC(=O)N2CCOCC2c2c(C)n[nH]c2C)cc1` (stereo not shown) | -6.923 |
| 7 | `N#Cc1ccc(N2CCC3(CCC(=O)N3CCN3CCCC3)CC2)nc1.O=C(O)C(F)(F)F.O=C(O)C(F)(F)F` | 3.156 |
| 8 | `Cc1nnc2n1CCN(CC(=O)Nc1cc(C(C)C)no1)C2` | -2.422 |
| 9 | `Cn1cc(N2CCCC(Nc3ccc4c(c3)CCCO4)C2=O)cn1` (stereo not shown) | 21.85 |
| 10 | `Cc1cc(C(=O)N2CCCC2Cn2nc(C)cc2C)on1` (stereo not shown) | 5.24 |
| 11 | `[H][C@@]12CN(S(=O)(=O)c3ccc(C#N)cc3)C[C@]1([H])OCCN2C(C)C` | -6.797 |
| 12 | `O=C(CCc1cc(Cl)no1)N1CCC(c2cc3ncccc3cn2)CC1` | -108.1 |
| 13 | `COc1ccnc(N2CCN(C(=O)c3cnn(C)c3C3CC3)CC2)n1` | -1.95 |
| 14 | `Cc1ccoc1C(=O)NCCOc1ncc(Cl)cc1Cl` | 23.15 |
| 15 | `CN(CC1CCCCO1)S(=O)(=O)c1cccc(C(=O)N2CCOCC2)c1` (stereo not shown) | 20.5 |
| 16 | `CC(C)(C)c1nccc(N2CCCCC2CCNS(C)(=O)=O)n1` (stereo not shown) | -8.237 |
| 17 | `CS(=O)(=O)NCCNCc1ccc(Br)s1.Cl` | -4.859 |
| 18 | `Cn1cccc1C(=O)NCc1cn2c(n1)CN(CC1CCOCC1)CC2.O=C(O)C(F)(F)F` | 11.14 |
| 19 | `Cc1ncsc1CN1C[C@@H](O)[C@](O)(CNC(=O)c2ccccn2)C1` | -18.15 |
| 20 | `N#Cc1ccc(Cn2cncn2)c(F)c1` | -47.28 |
| 21 | `[H][C@@]12COC[C@]1([H])[C@@H](OC)CN2C(=O)c1ccnnc1` | -39.87 |
| 22 | `Cc1nc(C(F)(F)F)nc(N2CCC(O)(C(=O)O)CC2)c1C` | 17.53 |
| 23 | `O=C(O)C(F)(F)F.O=C(O)C(F)(F)F.c1ccc(OC2COC3(CCN(CC4CC4)CC3)C2)nc1` (stereo not shown) | -4.841 |
| 24 | `Cc1nonc1CNC(=O)C(C)Oc1ccccc1F` (stereo not shown) | 47.11 |
| 25 | `CCn1nc(C)cc1C(=O)N1C[C@@H](CN(C)C)[C@@H](CO)C1` | 21.87 |
| 26 | `CC(=O)NCc1noc2c1CN(Cc1cccs1)CC2` | 21.04 |
| 27 | `[H][C@@]12CCN(Cc3scnc3C)C[C@]1(c1nnc(C)o1)CCO2` | 1.046 |
| 28 | `Cn1cc(CNCCn2cccn2)c(-c2cccnc2)n1` | 1.853 |
| 29 | `O=C1CCC2(CCCN(C(=O)c3ncc[nH]3)C2)CN1CCc1c[nH]cn1` (stereo not shown) | -0.8627 |
| 30 | `CC(=O)NCCc1ccc(S(=O)(=O)N(C)C(C)C(C)(C)C)s1` (stereo not shown) | 30.18 |
| 31 | `COCC(C)NC(=O)CSc1ccc(F)c(Cl)c1` (stereo not shown) | -17.4 |
| 32 | `CC(=O)NCC1CCCN(Cc2nc(Cc3ccccc3F)no2)C1` (stereo not shown) | 18.87 |
| 33 | `CCC1(CC)Cc2ccccc2-c2nc(NCCO)[nH]c(=O)c21` | 28.32 |
| 34 | `Cc1noc(Cl)c1CCC(=O)N1CCC(Nc2cccnn2)CC1` | -1.327 |
| 35 | `COCCNC(=O)N1CCN(C(C)C(=O)NC(C)C)CC1` (stereo not shown) | 6.003 |
| 36 | `Cc1oc(-c2nc(C#N)c(NC3CC3)o2)cc1S(=O)(=O)N1CCCC1` | 11.83 |
| 37 | `CSc1nnc(C2CCN(C(=O)N3CCCC3)CC2)n1C` | 3.951 |
| 38 | `COCCCS(=O)(=O)N1CCN(Cc2cccn2C)CC1` | -45.6 |
| 39 | `COc1ccccc1-c1ncc(CN2C[C@H](O)[C@@H](N3CCCC3)C2)s1` | 9.846 |
| 40 | `CN(Cc1ccc(F)cc1)[C@@H]1CN(S(=O)(=O)N(C)C)C[C@H]1O` | 11.25 |
| 41 | `Cc1cc(NC(=O)N2CCCC2C(=O)NC2CC2)c2ncccc2c1` (stereo not shown) | 10.74 |
| 42 | `Cc1nccc(CNC(=O)Nc2cc(C(F)(F)F)c[nH]c2=O)n1` | 23.01 |

For reference, 4 entries once more:

- COCCCS(=O)(=O)N1CCN(Cc2cccn2C)CC1 : -45.6%
- CN(C)CCOc1ccc(N(C)S(=O)(=O)c2cnn(C)c2)cc1 : 13.67%
- COCCNC(=O)N1CCN(C(C)C(=O)NC(C)C)CC1 (stereo not shown) : 6.003%
- CSc1nnc(C2CCN(C(=O)N3CCCC3)CC2)n1C : 3.951%